The other results are listed elsewhere or left out.

Sequences of proteins named here, by UniProt entry; tags and fusion partners are left off. A change or cut given only in a name is not applied to a line headed by its entry.
UniProt Q03060: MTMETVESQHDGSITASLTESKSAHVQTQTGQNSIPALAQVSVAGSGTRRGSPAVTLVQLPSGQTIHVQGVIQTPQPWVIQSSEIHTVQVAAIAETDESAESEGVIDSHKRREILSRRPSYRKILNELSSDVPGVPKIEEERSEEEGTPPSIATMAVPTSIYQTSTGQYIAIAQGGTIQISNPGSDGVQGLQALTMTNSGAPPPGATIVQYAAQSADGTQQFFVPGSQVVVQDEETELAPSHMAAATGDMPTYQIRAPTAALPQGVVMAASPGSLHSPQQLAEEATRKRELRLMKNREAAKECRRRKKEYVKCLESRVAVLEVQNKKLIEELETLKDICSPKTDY
UniProt Q9GZQ3, whole entry, looked up: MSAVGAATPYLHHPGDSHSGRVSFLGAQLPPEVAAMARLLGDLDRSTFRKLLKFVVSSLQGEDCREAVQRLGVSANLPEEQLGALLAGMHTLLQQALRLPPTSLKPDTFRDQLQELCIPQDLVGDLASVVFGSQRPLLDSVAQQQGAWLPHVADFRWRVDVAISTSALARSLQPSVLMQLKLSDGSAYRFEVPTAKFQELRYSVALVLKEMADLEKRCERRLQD
UniProt P13073, whole entry, looked up: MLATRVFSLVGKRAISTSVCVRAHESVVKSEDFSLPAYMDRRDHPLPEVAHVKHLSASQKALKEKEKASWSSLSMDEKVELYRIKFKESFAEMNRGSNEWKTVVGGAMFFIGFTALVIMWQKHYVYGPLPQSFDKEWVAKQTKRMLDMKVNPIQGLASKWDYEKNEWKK
UniProt Q9UI42: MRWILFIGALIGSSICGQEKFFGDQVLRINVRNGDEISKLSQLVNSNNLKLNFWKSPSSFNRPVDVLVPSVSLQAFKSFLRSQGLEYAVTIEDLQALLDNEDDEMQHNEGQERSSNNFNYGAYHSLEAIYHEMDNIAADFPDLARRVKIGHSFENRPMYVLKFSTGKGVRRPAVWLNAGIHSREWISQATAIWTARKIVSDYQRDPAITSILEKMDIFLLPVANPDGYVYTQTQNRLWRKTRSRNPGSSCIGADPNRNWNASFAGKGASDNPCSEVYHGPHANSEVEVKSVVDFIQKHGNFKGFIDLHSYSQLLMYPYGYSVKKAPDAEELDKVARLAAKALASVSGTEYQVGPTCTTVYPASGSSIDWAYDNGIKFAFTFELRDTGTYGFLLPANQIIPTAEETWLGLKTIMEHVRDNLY
UniProt Q12887: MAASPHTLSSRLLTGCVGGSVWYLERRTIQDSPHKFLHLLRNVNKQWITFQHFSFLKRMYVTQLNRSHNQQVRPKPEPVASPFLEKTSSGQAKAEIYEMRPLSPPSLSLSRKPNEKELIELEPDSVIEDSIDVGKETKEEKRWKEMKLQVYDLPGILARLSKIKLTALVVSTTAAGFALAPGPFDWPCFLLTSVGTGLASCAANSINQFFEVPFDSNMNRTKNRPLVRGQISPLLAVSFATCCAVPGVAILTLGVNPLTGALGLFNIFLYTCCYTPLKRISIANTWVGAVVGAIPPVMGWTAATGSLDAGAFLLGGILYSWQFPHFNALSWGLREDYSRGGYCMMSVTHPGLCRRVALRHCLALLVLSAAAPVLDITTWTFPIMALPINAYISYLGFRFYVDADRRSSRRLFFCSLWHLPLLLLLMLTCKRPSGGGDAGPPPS

Compound in the test: c1cn2cc(-c3ccc4cn[nH]c4c3)nc(Nc3ccc(N4CCOCC4)cc3)c2n1 [entospletinib]
As to the kind of experiment: log2 fold change, soluble protein after heating vs DMSO (PISA); higher = thermal stabilisation; K562 cells, 10 uM, 30 min; active = over 0.2 and 3.5 SD of the protein, either way, in both replicates (recomputed). Put shortly:
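Soluble protein was defined as the supernatant after 21,000xg for 90 min. It came from K562 cells at 2×10^6 cells/mL given 10 μM compound for 30 min, heated in aliquots for 3 min across 48°C-58°C, pooled, and extracted in PBS with 0.5% NP-40 at 4°C, and was quantified by TMTpro 16plex LC-MS/MS with equalised channel sums. Thermal stability against control samples, from duplicates, is reported as log2 fold change.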
As to CREM isoform 1 (UniProt Q03060), the log2 fold change is inactive: 0.081.
The same measure for COMMD5 (UniProt Q9GZQ3): inactive: -0.052; for COX4I1 (UniProt P13073): inactive: 0.003; for CPA4 (UniProt Q9UI42): inactive: -0.058.
The same measure for COX10 (UniProt Q12887): inactive: -0.056.

The record behind these values is the supplement of paper PMC10849652.
